Assay results reported in PMC6684519.
No constants are given. Whether binding was seen depends on the method and setting. Binding seen in cells or lysates may run through a third protein.

By UniProt entry, the sequences of proteins in these tests, tags left out.
UniProt O95863: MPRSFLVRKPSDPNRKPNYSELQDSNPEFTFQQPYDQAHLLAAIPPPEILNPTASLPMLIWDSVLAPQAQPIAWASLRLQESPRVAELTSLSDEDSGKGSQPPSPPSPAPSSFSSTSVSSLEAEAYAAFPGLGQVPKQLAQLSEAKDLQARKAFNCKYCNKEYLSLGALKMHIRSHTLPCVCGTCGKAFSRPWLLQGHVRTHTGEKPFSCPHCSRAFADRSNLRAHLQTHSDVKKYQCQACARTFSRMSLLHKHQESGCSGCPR

Assays:
[1] = molecular target: Hic-5 (hydrogen peroxide inducible clone-5) (human (endogenous in HCC413)) (UniProt O43294); experiment: co-IP; IP/western analysis of endogenous proteins in HCC413; cells untreated or treated with LZ-8 (5 μg/ml)
[2] = molecular target: Hic-5 expressed from the Hic-5 cDNA expression plasmid (p-Hic-5) (UniProt O43294); experiment: co-IP; HCC340 transfected with p-Hic-5 or p-CMV vector for indicated times (24-48 h); lysates, immunoprecipitation of Hic-5 followed by western blot of indicated molecules

binding [1]	binding [2]	Molecule
no binding	–	Snail (from UniProt O95863 1-264)
–	no binding	Zeb-1 (protein, UniProt P37275 1-1124) MADGPRCKRRKQANPRRNNVTNYNTVVETNSDSDDEDKLHIVEEESVTDAADCEGVPEDDLPTDQTVLPGRSSEREGNAKNCWEDDRKEGQEILGPEAQADEAGCTVKDDECESDAENEQNHDPNVEEFLQQQDTAVIFPEAPEEDQRQGTPEASGHDENGTPDAFSQLLTCPYCDRGYKRFTSLKEHIKYRHEKNEDNFSCSLCSYTFAYRTQLERHMTSHKSGRDQRHVTQSGCNRKFKCTECGKAFKYKHHLKEHLRIHSGEKPYECPNCKKRFSHSGSYSSHISSKKCISLIPVNGRPRTGLKTSQCSSPSLSASPGSPTRPQIRQKIENKPLQEQLSVNQIKTEPVDYEFKPIVVASGINCSTPLQNGVFTGGGPLQATSSPQGMVQAVVLPTVGLVSPISINLSDIQNVLKVAVDGNVIRQVLENNQANLASKEQETINASPIQQGGHSVISAISLPLVDQDGTTKIIINYSLEQPSQLQVVPQNLKKENPVATNSCKSEKLPEDLTVKSEKDKSFEGGVNDSTCLLCDDCPGDINALPELKHYDLKQPTQPPPLPAAEAEKPESSVSSATGDGNLSPSQPPLKNLLSLLKAYYALNAQPSAEELSKIADSVNLPLDVVKKWFEKMQAGQISVQSSEPSSPEPGKVNIPAKNNDQPQSANANEPQDSTVNLQSPLKMTNSPVLPVGSTTNGSRSSTPSPSPLNLSSSRNTQGYLYTAEGAQEEPQVEPLDLSLPKQQGELLERSTITSVYQNSVYSVQEEPLNLSCAKKEPQKDSCVTDSEPVVNVIPPSANPINIAIPTVTAQLPTIVAIADQNSVPCLRALAANKQTILIPQVAYTYSTTVSPAVQEPPLKVIQPNGNQDERQDTSSEGVSNVEDQNDSDSTPPKKKMRKTENGMYACDLCDKIFQKSSSLLRHKYEHTGKRPHECGICKKAFKHKHHLIEHMRLHSGEKPYQCDKCGKRFSHSGSYSQHMNHRYSYCKREAEERDSTEQEEAGPEILSNEHVGARASPSQGDSDERESLTREEDEDSEKEEEEEDKEMEELQEEKECEKPQGDEEEEEEEEEVEEEEVEEAENEGEEAKTEGLMKDDRAESQASSLGQKVGESSEQVSEEKTNEA
